Measurements published in the supplement of paper PMC10849652.
This is one part of the list.

Amino acid sequences for entries named in this document (tags omitted). A change or cut given only in a name is not applied to a line headed by its entry.
UniProt Q6GMV3: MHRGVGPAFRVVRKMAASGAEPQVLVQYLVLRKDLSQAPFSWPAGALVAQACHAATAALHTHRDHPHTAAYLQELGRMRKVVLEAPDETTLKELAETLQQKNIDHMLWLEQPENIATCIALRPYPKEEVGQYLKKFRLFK
UniProt Q00577: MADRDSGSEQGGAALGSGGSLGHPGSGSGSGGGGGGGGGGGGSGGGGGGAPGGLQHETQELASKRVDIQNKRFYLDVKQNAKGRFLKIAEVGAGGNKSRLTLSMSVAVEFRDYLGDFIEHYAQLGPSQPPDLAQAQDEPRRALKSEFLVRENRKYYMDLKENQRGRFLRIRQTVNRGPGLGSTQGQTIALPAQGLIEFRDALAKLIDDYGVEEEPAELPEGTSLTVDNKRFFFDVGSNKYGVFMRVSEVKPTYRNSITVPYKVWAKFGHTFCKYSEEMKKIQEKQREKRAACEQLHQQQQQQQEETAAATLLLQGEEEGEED
UniProt P06454: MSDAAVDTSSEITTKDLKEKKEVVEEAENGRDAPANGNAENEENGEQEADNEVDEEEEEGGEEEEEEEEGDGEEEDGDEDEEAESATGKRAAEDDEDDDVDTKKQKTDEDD
UniProt Q96PZ0: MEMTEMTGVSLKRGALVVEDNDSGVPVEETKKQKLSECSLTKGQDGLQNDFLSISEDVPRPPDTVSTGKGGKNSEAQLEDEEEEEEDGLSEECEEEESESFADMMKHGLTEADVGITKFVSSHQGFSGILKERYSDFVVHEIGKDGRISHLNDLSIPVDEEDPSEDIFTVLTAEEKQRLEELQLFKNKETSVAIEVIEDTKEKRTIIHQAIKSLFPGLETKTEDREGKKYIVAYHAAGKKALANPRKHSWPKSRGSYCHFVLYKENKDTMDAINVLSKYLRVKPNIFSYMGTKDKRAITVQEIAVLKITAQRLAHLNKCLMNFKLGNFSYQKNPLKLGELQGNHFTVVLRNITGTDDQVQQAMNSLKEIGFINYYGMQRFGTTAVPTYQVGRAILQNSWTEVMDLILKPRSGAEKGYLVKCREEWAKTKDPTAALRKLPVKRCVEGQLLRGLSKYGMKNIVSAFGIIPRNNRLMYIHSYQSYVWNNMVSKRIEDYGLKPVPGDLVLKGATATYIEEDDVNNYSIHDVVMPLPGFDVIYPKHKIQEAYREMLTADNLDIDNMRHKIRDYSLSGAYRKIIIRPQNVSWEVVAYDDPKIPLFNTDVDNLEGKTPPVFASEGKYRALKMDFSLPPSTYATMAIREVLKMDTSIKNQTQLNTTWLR
UniProt Q9Y617: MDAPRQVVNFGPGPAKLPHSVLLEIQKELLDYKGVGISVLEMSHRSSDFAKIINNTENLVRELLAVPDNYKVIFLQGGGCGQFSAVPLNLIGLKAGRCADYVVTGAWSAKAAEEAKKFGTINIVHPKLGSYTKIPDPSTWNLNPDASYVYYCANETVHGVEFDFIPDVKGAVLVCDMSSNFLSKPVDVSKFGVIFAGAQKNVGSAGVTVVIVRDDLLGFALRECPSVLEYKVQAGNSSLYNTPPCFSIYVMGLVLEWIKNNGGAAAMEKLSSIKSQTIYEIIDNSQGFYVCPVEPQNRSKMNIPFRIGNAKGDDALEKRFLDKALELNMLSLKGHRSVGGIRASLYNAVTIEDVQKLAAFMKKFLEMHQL
UniProt Q86TP1: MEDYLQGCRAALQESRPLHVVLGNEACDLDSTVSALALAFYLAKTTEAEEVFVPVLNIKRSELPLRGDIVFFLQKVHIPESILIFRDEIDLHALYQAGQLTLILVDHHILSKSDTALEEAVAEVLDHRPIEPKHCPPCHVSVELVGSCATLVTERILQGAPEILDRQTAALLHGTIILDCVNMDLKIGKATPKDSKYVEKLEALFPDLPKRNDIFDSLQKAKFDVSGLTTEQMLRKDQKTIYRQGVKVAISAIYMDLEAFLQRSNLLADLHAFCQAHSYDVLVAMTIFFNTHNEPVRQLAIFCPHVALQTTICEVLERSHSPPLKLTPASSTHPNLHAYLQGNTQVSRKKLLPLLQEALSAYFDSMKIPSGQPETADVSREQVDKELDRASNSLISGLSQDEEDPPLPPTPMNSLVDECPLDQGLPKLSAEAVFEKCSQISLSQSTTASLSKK
UniProt O95456: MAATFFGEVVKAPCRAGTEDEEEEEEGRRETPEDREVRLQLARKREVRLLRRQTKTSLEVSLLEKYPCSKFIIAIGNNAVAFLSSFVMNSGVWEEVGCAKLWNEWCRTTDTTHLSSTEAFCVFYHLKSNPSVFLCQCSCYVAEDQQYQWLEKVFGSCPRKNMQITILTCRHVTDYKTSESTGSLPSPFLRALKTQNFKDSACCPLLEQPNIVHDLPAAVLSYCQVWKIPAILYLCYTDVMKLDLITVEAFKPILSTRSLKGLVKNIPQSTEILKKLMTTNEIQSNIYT
UniProt P15151: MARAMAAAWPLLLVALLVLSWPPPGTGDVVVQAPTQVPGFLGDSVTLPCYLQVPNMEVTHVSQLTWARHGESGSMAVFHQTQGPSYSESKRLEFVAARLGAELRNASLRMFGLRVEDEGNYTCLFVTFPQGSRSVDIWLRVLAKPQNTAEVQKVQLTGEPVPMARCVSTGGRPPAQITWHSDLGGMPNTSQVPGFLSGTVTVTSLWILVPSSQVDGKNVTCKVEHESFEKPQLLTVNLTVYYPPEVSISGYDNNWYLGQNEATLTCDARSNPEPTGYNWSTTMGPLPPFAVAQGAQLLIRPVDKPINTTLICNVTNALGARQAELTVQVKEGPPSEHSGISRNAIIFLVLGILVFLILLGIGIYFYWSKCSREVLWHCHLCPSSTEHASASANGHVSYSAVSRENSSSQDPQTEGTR
UniProt P25787: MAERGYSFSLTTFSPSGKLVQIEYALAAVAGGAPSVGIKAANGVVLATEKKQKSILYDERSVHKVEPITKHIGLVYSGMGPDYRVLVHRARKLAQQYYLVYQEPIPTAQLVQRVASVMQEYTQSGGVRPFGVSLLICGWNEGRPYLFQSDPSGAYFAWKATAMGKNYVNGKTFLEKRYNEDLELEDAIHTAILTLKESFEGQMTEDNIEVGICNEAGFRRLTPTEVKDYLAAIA
UniProt Q15257: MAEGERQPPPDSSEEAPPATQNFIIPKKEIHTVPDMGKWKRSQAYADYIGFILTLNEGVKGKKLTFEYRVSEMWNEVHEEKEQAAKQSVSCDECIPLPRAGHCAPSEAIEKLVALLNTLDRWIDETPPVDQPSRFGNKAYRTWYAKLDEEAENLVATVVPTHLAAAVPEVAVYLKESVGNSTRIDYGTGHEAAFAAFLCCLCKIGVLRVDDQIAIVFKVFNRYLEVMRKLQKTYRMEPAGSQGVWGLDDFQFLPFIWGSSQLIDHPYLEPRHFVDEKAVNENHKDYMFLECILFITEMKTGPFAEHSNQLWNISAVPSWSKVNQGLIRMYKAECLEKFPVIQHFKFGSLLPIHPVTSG
UniProt Q3MIT2: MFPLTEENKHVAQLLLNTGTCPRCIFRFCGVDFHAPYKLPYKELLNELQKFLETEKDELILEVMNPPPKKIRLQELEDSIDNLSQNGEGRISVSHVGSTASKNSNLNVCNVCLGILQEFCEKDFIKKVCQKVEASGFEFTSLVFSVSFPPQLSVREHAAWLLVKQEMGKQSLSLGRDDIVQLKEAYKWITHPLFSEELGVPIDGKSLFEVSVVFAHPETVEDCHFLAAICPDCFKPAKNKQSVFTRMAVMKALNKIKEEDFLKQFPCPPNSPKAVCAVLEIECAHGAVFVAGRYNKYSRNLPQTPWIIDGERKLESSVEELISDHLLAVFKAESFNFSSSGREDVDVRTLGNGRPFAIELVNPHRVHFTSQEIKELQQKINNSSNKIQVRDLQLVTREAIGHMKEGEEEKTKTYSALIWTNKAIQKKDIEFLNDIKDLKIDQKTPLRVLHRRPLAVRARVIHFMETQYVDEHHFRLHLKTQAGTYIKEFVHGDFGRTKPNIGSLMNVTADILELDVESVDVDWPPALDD
UniProt Q9P2W1: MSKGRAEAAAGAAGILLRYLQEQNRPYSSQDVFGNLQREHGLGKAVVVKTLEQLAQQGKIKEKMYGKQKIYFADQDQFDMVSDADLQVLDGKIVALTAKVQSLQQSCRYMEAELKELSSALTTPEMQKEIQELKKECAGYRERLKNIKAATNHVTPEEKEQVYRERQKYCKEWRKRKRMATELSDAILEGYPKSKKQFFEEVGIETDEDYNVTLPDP
UniProt Q13308: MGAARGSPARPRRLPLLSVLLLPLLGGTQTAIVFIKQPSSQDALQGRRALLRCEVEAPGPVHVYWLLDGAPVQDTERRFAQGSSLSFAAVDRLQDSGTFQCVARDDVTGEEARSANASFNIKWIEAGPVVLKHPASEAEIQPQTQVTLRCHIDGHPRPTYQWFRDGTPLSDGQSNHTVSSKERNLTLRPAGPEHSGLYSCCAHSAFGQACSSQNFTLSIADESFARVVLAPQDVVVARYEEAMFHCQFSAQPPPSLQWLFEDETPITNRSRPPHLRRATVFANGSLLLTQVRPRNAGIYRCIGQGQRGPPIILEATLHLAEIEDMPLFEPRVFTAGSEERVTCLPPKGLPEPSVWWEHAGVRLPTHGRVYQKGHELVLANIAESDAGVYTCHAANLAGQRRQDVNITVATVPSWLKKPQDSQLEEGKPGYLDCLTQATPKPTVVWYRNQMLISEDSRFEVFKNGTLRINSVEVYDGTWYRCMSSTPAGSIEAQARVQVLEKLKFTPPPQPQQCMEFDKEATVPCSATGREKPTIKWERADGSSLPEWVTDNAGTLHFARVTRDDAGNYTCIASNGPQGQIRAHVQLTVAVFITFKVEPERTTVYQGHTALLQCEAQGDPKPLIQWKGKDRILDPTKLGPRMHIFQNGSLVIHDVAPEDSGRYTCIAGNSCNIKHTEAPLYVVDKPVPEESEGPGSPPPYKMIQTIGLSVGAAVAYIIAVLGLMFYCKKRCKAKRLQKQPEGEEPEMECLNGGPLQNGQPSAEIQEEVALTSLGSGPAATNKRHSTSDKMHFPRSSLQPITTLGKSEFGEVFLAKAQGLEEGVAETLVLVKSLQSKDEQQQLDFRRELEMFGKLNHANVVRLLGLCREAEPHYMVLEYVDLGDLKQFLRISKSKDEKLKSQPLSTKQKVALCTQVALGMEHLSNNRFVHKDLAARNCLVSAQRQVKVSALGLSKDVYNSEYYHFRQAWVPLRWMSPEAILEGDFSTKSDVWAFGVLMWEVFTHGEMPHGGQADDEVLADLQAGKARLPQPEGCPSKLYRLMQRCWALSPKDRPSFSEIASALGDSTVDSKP
UniProt P51665: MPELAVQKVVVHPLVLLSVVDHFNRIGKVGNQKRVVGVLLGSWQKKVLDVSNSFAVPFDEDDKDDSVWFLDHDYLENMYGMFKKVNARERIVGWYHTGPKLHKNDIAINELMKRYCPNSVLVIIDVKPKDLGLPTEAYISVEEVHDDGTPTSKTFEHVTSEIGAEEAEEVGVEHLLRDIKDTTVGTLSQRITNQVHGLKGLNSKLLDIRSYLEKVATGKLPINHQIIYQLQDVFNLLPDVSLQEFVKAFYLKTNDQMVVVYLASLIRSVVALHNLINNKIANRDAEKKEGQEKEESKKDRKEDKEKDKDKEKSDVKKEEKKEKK
UniProt Q6PGN9: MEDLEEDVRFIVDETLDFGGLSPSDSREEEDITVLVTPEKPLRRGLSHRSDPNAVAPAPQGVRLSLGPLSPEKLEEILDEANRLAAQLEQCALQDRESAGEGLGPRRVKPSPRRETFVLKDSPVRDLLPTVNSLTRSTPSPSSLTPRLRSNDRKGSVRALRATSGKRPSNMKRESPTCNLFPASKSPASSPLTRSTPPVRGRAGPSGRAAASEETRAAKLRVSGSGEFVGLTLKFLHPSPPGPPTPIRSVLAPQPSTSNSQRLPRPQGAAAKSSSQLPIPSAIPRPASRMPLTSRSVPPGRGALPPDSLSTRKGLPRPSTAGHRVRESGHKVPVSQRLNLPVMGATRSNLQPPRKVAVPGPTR
UniProt Q9Y3E5: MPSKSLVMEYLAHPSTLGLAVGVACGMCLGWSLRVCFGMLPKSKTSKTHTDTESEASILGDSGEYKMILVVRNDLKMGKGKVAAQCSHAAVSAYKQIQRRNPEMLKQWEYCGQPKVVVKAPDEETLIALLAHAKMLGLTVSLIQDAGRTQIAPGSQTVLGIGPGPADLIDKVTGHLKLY
UniProt Q9Y6M0: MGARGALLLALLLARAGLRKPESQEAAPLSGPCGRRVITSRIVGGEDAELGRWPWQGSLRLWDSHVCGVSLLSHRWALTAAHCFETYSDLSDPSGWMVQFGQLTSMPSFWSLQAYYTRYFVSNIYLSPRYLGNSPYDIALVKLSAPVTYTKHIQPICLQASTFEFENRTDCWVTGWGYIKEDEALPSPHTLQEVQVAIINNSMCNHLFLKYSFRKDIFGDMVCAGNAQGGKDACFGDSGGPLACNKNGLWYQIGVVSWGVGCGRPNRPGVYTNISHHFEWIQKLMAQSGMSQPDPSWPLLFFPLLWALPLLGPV
UniProt Q06323: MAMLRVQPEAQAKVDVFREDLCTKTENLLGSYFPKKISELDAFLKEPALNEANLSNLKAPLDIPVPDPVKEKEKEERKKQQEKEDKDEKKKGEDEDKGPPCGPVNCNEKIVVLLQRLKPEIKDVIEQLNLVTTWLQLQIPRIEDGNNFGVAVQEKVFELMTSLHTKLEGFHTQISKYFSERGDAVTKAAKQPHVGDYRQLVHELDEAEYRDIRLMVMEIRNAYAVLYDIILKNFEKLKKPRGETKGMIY

Compound: C1=CC2=C(C=CC(=C2)/C=C\3/C(=O)NC(=NCC4=CC=CS4)S3)N=C1
Assay: log2 fold change, soluble protein after heating vs DMSO (PISA); higher = thermal stabilisation; K562 lysate, 10 uM; active = over 0.2 and 3.5 SD of the protein, either way, in both replicates (recomputed)
How it was run: (§1)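 The values are log-two fold changes in thermal stability compared with solvent controls and come from duplicates. They were obtained by TMTpro 16plex LC-MS/MS, with channel sums equalised, on the supernatant after 21,000xg for 90 min. That supernatant came from crude K562 extract at 1 mg/mL protein treated with 10 μM compound for 30 min, heated for 3 min across 48°C-58°C, pooled and brought to 0.5% NP-40 at 4°C.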

log2 fold change, inactive:
PSMD14 (UniProt O00487) 0.027
PTBP1 (UniProt P26599) -0.039
PSMB1 (UniProt P20618) 0.016
PTRHD1 (UniProt Q6GMV3) -0.056
PTK2B (UniProt Q14289) -0.012
PURA (UniProt Q00577) -0.029
PTMA (UniProt P06454) -0.013
PUS7 isoform 2 (UniProt Q96PZ0) -0.002
PSAT1 (UniProt Q9Y617) -0.001
PRUNE1 (UniProt Q86TP1) -0.039
PSMG1 (UniProt O95456) -0.023
PVR (UniProt P15151) -0.03
PSMD6 isoform 4 (UniProt Q15008) 0.008
PTPRA (UniProt P18433) -0.041
PTGES2 (UniProt Q9H7Z7) 0.066
PSMA2 (UniProt P25787) 0.003
PTPA isoform 2 (UniProt Q15257) -0.018
PUS10 (UniProt Q3MIT2) 0.011
PRRC2B (UniProt Q5JSZ5) -0.027
PSMC3IP (UniProt Q9P2W1) -0.056
PSMA5 (UniProt P28066) 0.01
PSMC4 (UniProt P43686) 0.008
PTGES3 (UniProt Q15185) -0.021
PTK7 isoform 6 (UniProt Q13308) -0.013
PSMD7 (UniProt P51665) 0.006
PSMB7 (UniProt Q99436) -0.013
PTAR1 (UniProt Q7Z6K3) -0.062
PTS (UniProt Q03393) 0.034
PSRC1 (UniProt Q6PGN9) 0.114
PTRH2 (UniProt Q9Y3E5) -0.015
PRSS21 (UniProt Q9Y6M0) 0.031
PSME1 (UniProt Q06323) -0.013

Compound: C1=CC2=NC=CN=C2C=C1/C=C/3\C(=O)NC(=O)S3
Assay: as above
How it was run: as §1

log2 fold change, inactive:
PSMD14 (UniProt O00487) 0.008
PTBP1 (UniProt P26599) 0.012
PSMB1 (UniProt P20618) -0.033
PTRHD1 (UniProt Q6GMV3) -0.088
PTK2B (UniProt Q14289) -0.053
PURA (UniProt Q00577) -0.022
PTMA (UniProt P06454) -0.002
PUS7 isoform 2 (UniProt Q96PZ0) -0.022
PSAT1 (UniProt Q9Y617) 0.003
PRUNE1 (UniProt Q86TP1) -0.021
PSMG1 (UniProt O95456) 0.066
PVR (UniProt P15151) 0.004
PSMD6 isoform 4 (UniProt Q15008) -0.048
PTPRA (UniProt P18433) -0.009
PTGES2 (UniProt Q9H7Z7) -0.054
PSMA2 (UniProt P25787) 0.004
PTPA isoform 2 (UniProt Q15257) 0.003
PUS10 (UniProt Q3MIT2) -0.006
PRRC2B (UniProt Q5JSZ5) -0.05
PSMC3IP (UniProt Q9P2W1) 0.03
PSMA5 (UniProt P28066) -0.02
PSMC4 (UniProt P43686) -0.012
PTGES3 (UniProt Q15185) -0.006
PTK7 isoform 6 (UniProt Q13308) -0.082
PSMD7 (UniProt P51665) -0.035
PSMB7 (UniProt Q99436) 0.005
PTAR1 (UniProt Q7Z6K3) -0.052
PTS (UniProt Q03393) 0.001
PSRC1 (UniProt Q6PGN9) 0.005
PTRH2 (UniProt Q9Y3E5) 0.05
PRSS21 (UniProt Q9Y6M0) 0.049
PSME1 (UniProt Q06323) 0.018

Compound: C1=CC=C(C=C1)C2=NC(=C(N2)C3=CC=NC=C3)C4=CC(=C(C=C4)Cl)O
Assay: as above
How it was run: as §1

log2 fold change, inactive:
PSMD14 (UniProt O00487) 0.016
PTBP1 (UniProt P26599) -0.011
PSMB1 (UniProt P20618) -0.013
PTRHD1 (UniProt Q6GMV3) -0.049
PTK2B (UniProt Q14289) 0.027
PURA (UniProt Q00577) 0.009
PTMA (UniProt P06454) 0.01
PUS7 isoform 2 (UniProt Q96PZ0) 0.015
PSAT1 (UniProt Q9Y617) 0.007
PRUNE1 (UniProt Q86TP1) -0.008
PSMG1 (UniProt O95456) 0.02
PVR (UniProt P15151) -0.034
PSMD6 isoform 4 (UniProt Q15008) -0.004
PTPRA (UniProt P18433) -0.03
PTGES2 (UniProt Q9H7Z7) 0.174
PSMA2 (UniProt P25787) 0.003
PTPA isoform 2 (UniProt Q15257) -0.017
PUS10 (UniProt Q3MIT2) 0.043
PRRC2B (UniProt Q5JSZ5) -0.019
PSMC3IP (UniProt Q9P2W1) 0.011
PSMA5 (UniProt P28066) 0.003
PSMC4 (UniProt P43686) 0.015
PTGES3 (UniProt Q15185) 0.029
PTK7 isoform 6 (UniProt Q13308) -0.016
PSMD7 (UniProt P51665) -0.004
PSMB7 (UniProt Q99436) 0.007
PTAR1 (UniProt Q7Z6K3) -0.04
PTS (UniProt Q03393) 0.074
PSRC1 (UniProt Q6PGN9) 0.075
PTRH2 (UniProt Q9Y3E5) -0.001
PRSS21 (UniProt Q9Y6M0) 0.008
PSME1 (UniProt Q06323) -0.005
